Data: article PMC12663137 (Nature Communications, 2025)
Where “and” joins values, the source holds several entries; their conditions need not be identical. Equal entries are not always repeated. The source gives many values for each of these; only a part stands here.

By UniProt entry, the sequences of proteins in these tests, tags left out. Residues count along the entry.
UniProt Q7L0J3, 141-742 F188A: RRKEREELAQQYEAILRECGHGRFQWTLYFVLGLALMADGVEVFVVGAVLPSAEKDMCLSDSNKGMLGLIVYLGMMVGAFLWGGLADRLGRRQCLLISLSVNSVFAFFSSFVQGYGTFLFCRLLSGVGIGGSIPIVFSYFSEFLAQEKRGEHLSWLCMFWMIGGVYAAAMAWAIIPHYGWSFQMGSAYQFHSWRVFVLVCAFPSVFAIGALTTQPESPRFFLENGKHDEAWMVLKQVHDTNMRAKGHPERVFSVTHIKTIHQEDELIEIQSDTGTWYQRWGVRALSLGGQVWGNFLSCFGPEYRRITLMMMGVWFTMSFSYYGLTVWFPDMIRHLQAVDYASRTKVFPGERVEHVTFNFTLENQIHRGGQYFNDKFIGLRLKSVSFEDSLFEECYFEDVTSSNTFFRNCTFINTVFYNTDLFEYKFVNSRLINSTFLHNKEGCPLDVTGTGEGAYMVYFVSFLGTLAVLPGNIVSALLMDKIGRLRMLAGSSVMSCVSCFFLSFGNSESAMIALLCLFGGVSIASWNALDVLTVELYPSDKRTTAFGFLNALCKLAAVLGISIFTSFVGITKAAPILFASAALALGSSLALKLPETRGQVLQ
UniProt Q7L0J3, whole entry: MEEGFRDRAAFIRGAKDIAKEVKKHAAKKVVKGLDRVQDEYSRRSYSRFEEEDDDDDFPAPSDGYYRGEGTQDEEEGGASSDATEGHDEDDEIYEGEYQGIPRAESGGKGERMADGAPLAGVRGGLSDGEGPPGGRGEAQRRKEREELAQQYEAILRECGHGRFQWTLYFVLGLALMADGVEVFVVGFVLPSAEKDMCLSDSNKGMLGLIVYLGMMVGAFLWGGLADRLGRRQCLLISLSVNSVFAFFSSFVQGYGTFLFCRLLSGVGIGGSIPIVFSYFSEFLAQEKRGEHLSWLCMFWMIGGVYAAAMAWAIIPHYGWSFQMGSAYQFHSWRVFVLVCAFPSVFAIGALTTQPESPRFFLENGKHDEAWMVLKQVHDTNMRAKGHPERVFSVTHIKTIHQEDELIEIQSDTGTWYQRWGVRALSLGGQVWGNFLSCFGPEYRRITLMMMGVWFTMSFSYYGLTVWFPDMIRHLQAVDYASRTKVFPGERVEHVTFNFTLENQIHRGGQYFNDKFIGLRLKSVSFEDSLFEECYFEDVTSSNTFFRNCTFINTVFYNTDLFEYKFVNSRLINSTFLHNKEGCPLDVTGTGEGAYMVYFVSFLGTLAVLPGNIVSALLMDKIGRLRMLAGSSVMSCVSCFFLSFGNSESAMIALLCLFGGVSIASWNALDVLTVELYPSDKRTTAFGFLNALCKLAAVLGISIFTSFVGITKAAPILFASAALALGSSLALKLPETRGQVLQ

Key:
Format in all cases: binding
[1] = target: T1, SV2AEM WT or SV2AEM F188A (Homo sapiens, UniProt Q7L0J3, F188A); test: Dissociation kinetics of 3H-UCB-J (Fig. 4E); settings: F188A, 30 µM UCB1244283, 1 min
T1 construct: expressed in transfected cells; host or cells: HEK293 (ATCC CRL-1573), crude membranes
Experimental: (§1) Ligand binding studies were carried out using crude membranes prepared from HEK293 cells (ATCC, CRL-1573) overexpressing mVenus-SV2AWT or SV2AEM. Membranes were prepared either from transiently transfected cells or from baculovirus-infected cells as described previously. Cells were washed with DPBS (Ca^2+ and Mg^2+ free), followed by resuspending in cold SH buffer (10 mM HEPES-Tris pH 7.4, 320 mM sucrose) containing protease inhibitor cocktail (MedChemExpress) to a density of 10^7 cells/ml. This cell suspension was homogenized by passing through a bead homogenizer (Isobiotec) with 10-micron clearance bead on ice. The lysate was then centrifuged at 4000 × g for 5 min at 4 °C, and the supernatant was aliquoted, frozen in liquid nitrogen, and stored at −80 °C. The mVenus fluorescence estimated using fluorescence size-exclusion chromatography (FSEC) was used to normalize expression levels of mVenus-SV2A mutants studied as detailed previously. For all binding studies, membranes containing […] protein (estimated by BCA method) per reaction were used.
(§2) After 2 h of incubation, ligand dissociation was initiated with 0.3 µM ^1H-UCB-J and radioactivity was monitored at indicated time points by trapping equal volume of membranes on PEI-treated Unifilter-GF/C 96-well filter plates. Dissociation half-life (t1/2) estimates were obtained by fitting the data to one-phase exponential decay using GraphPad Prism 10.

[2] = target: T2, SV2AEM WT or SV2AEM F188A (Homo sapiens, UniProt Q7L0J3); test: Dissociation kinetics of 3H-UCB-J (Fig. 4E); settings: WT
T2 construct: expressed in transfected cells; host or cells: HEK293 (ATCC CRL-1573), crude membranes
Experimental: as §1, §2

[3] = target: T3, SV2AWT (Homo sapiens, UniProt Q7L0J3); test: Competitive displacement of 10 nM 3H-UCB-J, SV2AWT membranes (Fig. 1A); settings: SV2A_WT
T3 construct: expressed in transfected cells; host or cells: HEK293 (ATCC CRL-1573), crude membranes
Experimental: as §1
To obtain dose-response curves of studied SV2A ligands, membranes diluted in 0.2 ml binding buffer (50 mM Tris-Cl, pH 7.4, and 2 mM MgCl2) were incubated with indicated concentrations of ligands for 30 min at 4 °C. […] Radioactivity was monitored in MicroBeta2 plate counter (Revvity). […]

In the case of `COc1ccccc1NC(=O)CC(C)Cc1cc(C)cc(C)c1` (stereo not drawn) [UCB1244283], the “3H-UCB-J Binding (%)” value [1] is reported as 56.86% and 87.40%, the “3H-UCB-J Binding (%)” value ([2]; 30 µM UCB1244283, 1 min) is reported as 73.54% and 130.00% and 124.67% and the “3H-UCB-J Binding (%)” value ([2]; 30 µM UCB1244283, 2 min) is reported as 74.53% and 115.05% and 117.86%. The “3H-UCB-J Binding (%)” value ([2]; 30 µM UCB1244283, 3 min) was 75.27% and 132.61% and 111.58%.
`Cc1cnccc1CN1C[C@@H](c2cc(F)c(F)c(F)c2)CC1=O` [UCB-J] was tested, and the “Binding of 3H-UCB-J (%)” value ([3]; Log [1H-UCB-J] (M) -5.000) was -0.58% and -0.14% and 0.00% and 0.14%.
For `COCc1nn2c(CN3C[C@@H](CC(F)(F)Cl)CC3=O)c(C(F)(F)F)nc2s1` [padsevonil], the “Binding of 3H-UCB-J (%)” value ([3]; Log [Padsevonil] (M) -5.523) was -0.02%.
